Measurements reported in PubChem BioAssay AID1508597 (Cure First, 2020).

Aim: 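Genes whose silencing sensitises or protects ovarian cancer cells against rucaparib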 (primary screen)
Cells: human ovarian carcinoma lines grown from tumours: OCI-P5x (papillary serous) and OCI-C5x (clear cell)
Reagents: siRNA pool against human genes, 1.25 pmol siRNA per well
Time to read-out: 72 h or 96 h, depending on the cell culture
Challenge: rucaparib 20 µM (about IC30) or vehicle, present until read-out
Measured: 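Luminescent ATP-based viability assay read 72 or 96 h after transfection, depending on culture, given as normalised percent viability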
Reading the numbers: viability, normalised: higher = more viable cells remaining
Hit rule: 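a well counts as a hit if its normalised viability is under 80 percent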
Meaning of the calls: active = viability under 80%; inactive = viability 80% or more
In all, the deposit lists about 2,100 reagents; shown is a part drawn at random. 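Calls flag viability under 80% in either arm, not effects specific to rucaparib; the reference for percent is not stated.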 Some reagents were tested in more than one well and are listed for each. Reagent sequences are not shown. Not stated in the record: the 100% reference.

APP, rucaparib or vehicle Rucaparib, cell line OCI-C5x (clear cell), technical replicate 1 — viability, normalised (%) = 64.1; outcome = active
APP, rucaparib or vehicle Rucaparib, cell line OCI-C5x (clear cell), technical replicate 2 — viability, normalised (%) = 50.4; outcome = active
APP, rucaparib or vehicle Rucaparib, cell line OCI-C5x (clear cell), technical replicate 3 — viability, normalised (%) = 44.3; outcome = active
APP, rucaparib or vehicle Rucaparib, cell line OCI-P5x (serous), technical replicate 1 — viability, normalised (%) = 60.3; outcome = active
APP, rucaparib or vehicle Rucaparib, cell line OCI-P5x (serous), technical replicate 2 — viability, normalised (%) = 67.1; outcome = active
APP, rucaparib or vehicle Rucaparib, cell line OCI-P5x (serous), technical replicate 3 — viability, normalised (%) = 79; outcome = active
APP, rucaparib or vehicle Vehicle, cell line OCI-C5x (clear cell), technical replicate 1 — viability, normalised (%) = 40.2; outcome = active
APP, rucaparib or vehicle Vehicle, cell line OCI-C5x (clear cell), technical replicate 2 — viability, normalised (%) = 31.6; outcome = active
APP, rucaparib or vehicle Vehicle, cell line OCI-C5x (clear cell), technical replicate 3 — viability, normalised (%) = 33.6; outcome = active
APP, rucaparib or vehicle Vehicle, cell line OCI-P5x (serous), technical replicate 1 — viability, normalised (%) = 87.1; outcome = inactive
APP, rucaparib or vehicle Vehicle, cell line OCI-P5x (serous), technical replicate 2 — viability, normalised (%) = 62.7; outcome = active
APP, rucaparib or vehicle Vehicle, cell line OCI-P5x (serous), technical replicate 3 — viability, normalised (%) = 83.6; outcome = inactive
ATRX, rucaparib or vehicle Rucaparib, cell line OCI-C5x (clear cell), technical replicate 1 — viability, normalised (%) = 65.9; outcome = active
ATRX, rucaparib or vehicle Rucaparib, cell line OCI-C5x (clear cell), technical replicate 1 — viability, normalised (%) = 42.7; outcome = active
ATRX, rucaparib or vehicle Rucaparib, cell line OCI-C5x (clear cell), technical replicate 2 — viability, normalised (%) = 52.4; outcome = active
ATRX, rucaparib or vehicle Rucaparib, cell line OCI-C5x (clear cell), technical replicate 2 — viability, normalised (%) = 34.1; outcome = active
ATRX, rucaparib or vehicle Rucaparib, cell line OCI-C5x (clear cell), technical replicate 3 — viability, normalised (%) = 59.1; outcome = active
ATRX, rucaparib or vehicle Rucaparib, cell line OCI-C5x (clear cell), technical replicate 3 — viability, normalised (%) = 45.7; outcome = active
ATRX, rucaparib or vehicle Rucaparib, cell line OCI-P5x (serous), technical replicate 1 — viability, normalised (%) = 66.3; outcome = active
ATRX, rucaparib or vehicle Rucaparib, cell line OCI-P5x (serous), technical replicate 1 — viability, normalised (%) = 78.8; outcome = active
ATRX, rucaparib or vehicle Rucaparib, cell line OCI-P5x (serous), technical replicate 2 — viability, normalised (%) = 82.7; outcome = inactive
ATRX, rucaparib or vehicle Rucaparib, cell line OCI-P5x (serous), technical replicate 2 — viability, normalised (%) = 74.1; outcome = active
ATRX, rucaparib or vehicle Rucaparib, cell line OCI-P5x (serous), technical replicate 3 — viability, normalised (%) = 87.7; outcome = inactive
ATRX, rucaparib or vehicle Rucaparib, cell line OCI-P5x (serous), technical replicate 3 — viability, normalised (%) = 77.6; outcome = active
ATRX, rucaparib or vehicle Vehicle, cell line OCI-C5x (clear cell), technical replicate 1 — viability, normalised (%) = 38.1; outcome = active
ATRX, rucaparib or vehicle Vehicle, cell line OCI-C5x (clear cell), technical replicate 1 — viability, normalised (%) = 59.1; outcome = active
ATRX, rucaparib or vehicle Vehicle, cell line OCI-C5x (clear cell), technical replicate 2 — viability, normalised (%) = 58; outcome = active
ATRX, rucaparib or vehicle Vehicle, cell line OCI-C5x (clear cell), technical replicate 2 — viability, normalised (%) = 45.6; outcome = active
ATRX, rucaparib or vehicle Vehicle, cell line OCI-C5x (clear cell), technical replicate 3 — viability, normalised (%) = 54.8; outcome = active
ATRX, rucaparib or vehicle Vehicle, cell line OCI-C5x (clear cell), technical replicate 3 — viability, normalised (%) = 48.9; outcome = active
ATRX, rucaparib or vehicle Vehicle, cell line OCI-P5x (serous), technical replicate 1 — viability, normalised (%) = 76; outcome = active
ATRX, rucaparib or vehicle Vehicle, cell line OCI-P5x (serous), technical replicate 1 — viability, normalised (%) = 61.4; outcome = active
ATRX, rucaparib or vehicle Vehicle, cell line OCI-P5x (serous), technical replicate 2 — viability, normalised (%) = 79.6; outcome = active
ATRX, rucaparib or vehicle Vehicle, cell line OCI-P5x (serous), technical replicate 2 — viability, normalised (%) = 69; outcome = active
ATRX, rucaparib or vehicle Vehicle, cell line OCI-P5x (serous), technical replicate 3 — viability, normalised (%) = 73.2; outcome = active
ATRX, rucaparib or vehicle Vehicle, cell line OCI-P5x (serous), technical replicate 3 — viability, normalised (%) = 75.3; outcome = active
